Test results published in the supplement of paper PMC5949888.
± gives the standard deviation of the averaged measurements. Most values lie at the floor of the assay. Slopes are relative: functional sequences can read slightly below zero.

The substances below were run on Saccharomyces cerevisiae PS128 hsf1 delta, HSF1(1-493) fusion (assay: growth estimate (transactivation domain function in HSF1 fusion, heat-shock survival) (a.u. (slope of normalised read count over time)); higher = stronger growth at 37°C, i.e. more transactivation activity). Details: library: random library.

Substance	growth estimate
MGWASPITSQRANGRIDRFC	< -0.25
PSGYRRMR	< -0.25
WVPLARNEVGAYGIRRKGRS	< -0.25
LACR	< -0.25
DFLRRRVYIARLI	< -0.25
TTCGSFSRTPSQFGGLRSMG	< -0.25
SVNVSG	< -0.25
DEYSVFRPWRFMM	-0.235
DWTVMVIHSAR	< -0.25
LIVNF	< -0.25
NFVLGRSAVSVLGLWQRCGG	< -0.25
AVVLSRLGFSRRQLASSSDQ	< -0.25
FYRGHSHPGGCMNFVAS	< -0.25
LLFTAVKAPRVPSFEDQVRT	< -0.25
GASDSRERGV	< -0.25
PFG	-0.248 ± 0.003
NFLLPEAVSGHGCFVLDCNP	< -0.25
GNRGCTCPLASS	< -0.25
RSRQLLNTLAGLG	< -0.25
RRNFWFVGPIHLSILASPQH	< -0.25
LSSP	< -0.25
SGGS	< -0.25
RLNVRRLRINFTSAHSPFSL	< -0.25

For convenience, some entries already given:
Substance	growth estimate
PSGYRRMR	< -0.25
WVPLARNEVGAYGIRRKGRS	< -0.25

Later entries:

Substance	growth estimate
FSCYL	< -0.25
KEPHHGKICARNWPTVHSKY	< -0.25
AMLLRHGPWPCRLG	< -0.25
GLGHVEHYIKGQGLLSVMRK	< -0.25
REDTACQVLVVSARGRHHPR	< -0.25
VMQRVMPSSRRS	< -0.25
SVLVYISVFIKGRNPFSARV	< -0.25
REGEVYD	< -0.25
ETRTAGNNSGSDITTADGFW	-0.246
QHFGRMNLGRC	< -0.25
RRSCIMRSISLWESSFRNWR	< -0.25
YNSHCVLPQASAAGFQYAKV	< -0.25
SLRQQTRAWKTGAGETDPCA	< -0.25
SSINPTGDYL	< -0.25
PGRVSAIGGGNRPFHVISPS	< -0.25
FTGFKLSTNRQYLAIPSSGV	< -0.25
GRLSLVQTFSANQARGLRAN	-0.243
SRSSVTYSIVVPLESPQVYP	< -0.25
CGTIKASGTVRASYGIPSVR	< -0.25
CRGVNSCETHLFRQRSKALG	< -0.25
HISRSCICRWGQIKCRWGVY	< -0.25
FRT	< -0.25
TTPGIVAIPLPQFYGARCHR	< -0.25

Substance	growth estimate
QGSGGVNVLREDLIPRPGPE	< -0.25
VRQQYTEWKGRCPEVLLRSE	< -0.25
SQTRGQDRSRINDESAEGYG	< -0.25
TRCKILRGTQYCHCGCVYME	< -0.25
WECDSEQHLRGPNRMSLESP	< -0.25
NSRKLCRTCLATPSTSAPCC	< -0.25
HTTREK	< -0.25
WTVKFL	< -0.25
RED	< -0.25
VISTVH	< -0.25
GRLMS	< -0.25
PLVFGGWLMAEL	< -0.25
RAACLQPHISMSGISQYQRS	< -0.25
RAFL	< -0.25
IERRPPV	< -0.25
LGKTRSVVQPVGRSQASAGY	< -0.25
VRHDIS	< -0.25
QQRLIRRVLRRLTSNLGLRM	< -0.25
TFAFQRKQPNTSIQ	< -0.25
QPGQLGRGILRVGC	< -0.25
RVHIISTSTYWSVWPYFN	< -0.25
INDCSVARSPEAHMRLHKTS	< -0.25
RRLLGMPVSAGVSSSPVSA	< -0.25

Substance	growth estimate
LVKYS	< -0.25
TRCGLTAKNGRKASGFLPEA	< -0.25
LRK	< -0.25
YRAMLR	< -0.25
LSRLR	< -0.25
RGGGGSRYQ	< -0.25
GVIARVSTRRRAVNYGSSHR	< -0.25
DPGEGLAEQRFEVK	< -0.25
FYAGQGRRKCIHPGKIRFQL	< -0.25
GWTLWAMNACSRDWLARCSR	< -0.25
SVPLYNWVVVW	-0.203
GAYLSNFAKEFDLMQSQFIS	< -0.25
RRPGRLQQATSC	< -0.25
TNKGTPTSGCRSSVVTVRHR	< -0.25
GWPGDLCTFAHCWNNADVGH	< -0.25
FLLHGHASLTSSRLVRAGPF	< -0.25
RLWKRMSEQISWLRISSPLG	< -0.25
IGSWAMSSCCDCPTNCNGQA	< -0.25
LSPM	< -0.25
ISVE	< -0.25
SIWMHS	< -0.25
VHRPYVARLDIHK	< -0.25
CIVTHKSGGIGRDLVYGYRS	< -0.25

Substance	growth estimate
VVNVLEV	< -0.25
VTFRDDVSHTVPRRMRTNTA	< -0.25
WSREQWTLLQA	< -0.25
DALLQSDAPQFSQR	< -0.25
RRRFIVGLNFALCCRFTLVR	< -0.25
LMKLLARNTQKIKQMAWSGV	< -0.25
MDRCAGPWAYRSRDYYNSYQ	< -0.25
EQGNPLRDREDTRQTPARAA	< -0.25
WHM	< -0.25
LLTWVACVGTSRDRTMASSQ	< -0.25
DSCGQKPRHGVHLGGIQPLL	< -0.25
PKVEFCRALRSDLSRRLGSG	< -0.25
VRRSDGNTPEGMTVSFSTRA	< -0.25
CVKQGS	< -0.25
VTLPFLCAVDILNVYPLVRL	< -0.25
QEMTRIHDLGSGSVNGTDKC	-0.246
VHGTARAPFER	< -0.25
LGF	< -0.25
VGKPSQRRLDRGLLTERDHE	< -0.25
FRIWPGEGATRVRVRPVLQR	< -0.25
RSLKSVTRVHKTS	< -0.25
DEDWGN	< -0.25
VYGVREIDWFSLRIVDAHVY	< -0.25

A few values from the list.
In growth estimate, TTCGSFSRTPSQFGGLRSMG shows < -0.25
In growth estimate, FYAGQGRRKCIHPGKIRFQL shows < -0.25

Carrying on.

Substance	growth estimate
WVYLGQRVWVQRKELVSPKP	< -0.25
MYG	< -0.25
SFPKFD	< -0.25
VRRPLGYVARNG	< -0.25
LRGWALTATVLSAAGQGREG	< -0.25
GVRAGIRAVHGQCYQALRTA	< -0.25
SVLTVRVGRQNGSLKGEAIH	< -0.25
NIGKDCSHPMLQSRARASNT	< -0.25
QVCSFPAYDKQLDEPSRRLR	< -0.25
TLGVKRETITYRWFWGPSQT	< -0.25
ILTHQREHTNDSPSPFP	< -0.25
NPQRFNTRAHET	< -0.25
CKVVVAELVVSVGLYNLGQR	< -0.25
YSFLS	< -0.25
LEADR	< -0.25
HEHQ	< -0.25
DGER	< -0.25
RVRYGDLVTRCQRPEHFRKS	< -0.25
GGRTRGTTGLLWPDGPEVGV	< -0.25
GVDCMHTNTLGVILLLPLRM	< -0.25
GLYKDQWC	< -0.25
GWREGPTSAQARRPES	-0.246
CRVKGIIAARKESLSRLTMT	< -0.25

Four records picked at random from the list so far, as already listed:
Substance	growth estimate
SFPKFD	< -0.25
GWREGPTSAQARRPES	-0.246
WVYLGQRVWVQRKELVSPKP	< -0.25
HEHQ	< -0.25

Later entries.

Substance	growth estimate
QRSRWCCYFARVSRGLGPSR	< -0.25
PDPTRVG	< -0.25
IYLRLRLLPAL	< -0.25
ILTN	< -0.25
ILHIITH	-0.246
VFK	< -0.25
RFNVMPTQGGGY	< -0.25
YCSTLQRLLNSERQGLRHPY	< -0.25
SRKGMRWMSSWYHRRIAPWT	< -0.25
DYTPGSKRTGHMSQKVQQRP	< -0.25
PSLPIASREDNGPAIRSMTQ	< -0.25
GAVLIGILRQDKEVDLGGCF	-0.246
AYIDRGQSNERSPDVRDRKT	< -0.25
REPV	< -0.25
GGVLYGTGWTGPARE	< -0.25
DVALYV	< -0.25
SGPTAGVGQQEPDRWKPSVR	< -0.25
QGRGEKLVRLLVVGASYYVP	< -0.25
WLWSVVA	< -0.25
LACKPGV	< -0.25
SISVRRGVA	< -0.25
